This note sets out measurements from patent publication US20210253634 (published 2021).

The data set in a line: general procedure: solution-phase peptide synthesis; ethyl-N-dimethylpropylamine carbodiimide / 2-hydroxypyridine-N-oxide. The following applies: late stage modification step.

In the case of H-Inp-(D)Bal-(D)Trp-Phe-Apc-NH2, the step yield is on record as 70%.
